Results are given in words; binding and its absence hold for the method and conditions named. Some binding calls cover weakened binding; strength is not graded here.
Molecular target: Thermoplasma acidophilum 20S proteasome, subunit other than the β subunit (α subunit) (Thermoplasma acidophilum) (UniProt P25156)
Experiment: cryo-EM structure; single particle analysis of purified 20S proteasome, 0.5 mg/ml, plunge-frozen on holey carbon grids; in-focus Volta phase plate and conventional defocus datasets; Relion, D7 symmetry; both purified

Sequences of proteins named here, by UniProt entry; tags and fusion partners are left off. Residues count along the entry.
UniProt P25156, residues 10-233: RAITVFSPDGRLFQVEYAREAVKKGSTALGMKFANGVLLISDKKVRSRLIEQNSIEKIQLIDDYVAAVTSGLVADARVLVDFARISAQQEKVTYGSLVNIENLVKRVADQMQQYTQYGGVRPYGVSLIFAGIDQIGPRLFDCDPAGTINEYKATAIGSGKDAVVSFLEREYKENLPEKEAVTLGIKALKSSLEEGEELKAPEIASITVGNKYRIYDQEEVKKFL

- binding: binds
B1: Thermoplasma acidophilum 20S proteasome β subunit (protein, UniProt P28061 9-211)
chain: TTTVGITLKDAVIMATERRVTMENFIMHKNGKKLFQIDTYTGMTIAGLVGDAQVLVRYMKAELELYRLQRRVNMPIEAVATLLSNMLNQVKYMPYMVQLLVGGIDTAPHVFSIDAAGGSVEDIYASTGSGSPFVYGVLESQYSEKMTVDEGVDLVIRAISAAKQRDSASGGMIDVAVITRKDGYVQLPTDQIESRIRKLGLIL

— paper PMC4850076
